Data: PubChem BioAssay AID504648 (National Center for Advancing Translational Sciences (NCATS), 2011)
About 610 (0.16%) of roughly 390,000 compounds were called active. The shares of active, inactive and inconclusive entries below differ from those in the screen. The call rests on the fitted dose curve; in most records, active means well fitted inhibition curve with a large enough effect; inconclusive means small, poorly fitted or top-dose-only effect, or effect the other way, or another doubt; inactive means no such curve, though single readings can be large or run the other way. Potencies beside an inconclusive call are fits to weak or partial responses and may not hold up.

Assay: Nrf2 qHTS screen for inhibitors: counterscreen for cytotoxicity
Conditions: A549 ARE-Fluc cells, CellTiter-Fluor viability, 18-24 h; series mostly up to 46 µM
Procedure, shortened: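 Cytotoxicity counterscreen: CellTiter-Fluor fluorescence was measured in A549 ARE_Fluc cells after 18-24 h of compound exposure in a concentration series. The subsequent BugLite luminescent read reports ARE-luciferase activity.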
Potency means the concentration at half of the fitted maximal effect.

Row | Structure (SMILES) | Potency
1 | Cc1c(Cl)cccc1NC(=O)CCC(=O)N/N=C/c1ccc[nH]1 | inconclusive: 29.1 µM [falling, single point]
2 | COc1cc(C2C3=C(COC3=O)Oc3cc4c(cc32)OCO4)cc(OC)c1OC (stereo unspecified) | inconclusive: 7.31 µM [falling, partial curve, poor fit]
3 | Cc1ccccc1Cc1c(C)nc2c(-c3ccccc3)c(C)[nH]n2c1=O | inconclusive: 18.4 µM [falling, partial curve, poor fit]
4 | CCN(CC)CCNc1nc(-n2nc(C)cc2C)nc2sc3c(c12)CC(C)(C)OC3 | inconclusive: 29.1 µM [falling, partial curve, poor fit]
5 | CCCCOc1ccc(Cn2c(=O)oc3ccccc32)cc1 | inactive
6 | O=C1OC(N2C(=O)CC[C@H]2C(=O)NCC2CCCO2)c2ccccc21 (stereo partly specified) | inactive
7 | CCCCCCCn1c(=N)n(CC(=O)c2ccco2)c2ccccc21 | inconclusive: 29.1 µM [falling, single point]
8 | O=C(Nc1ccc(S(=O)(=O)Nc2nccs2)cc1)c1cc(=O)[nH]c2ccccc12 | inconclusive: 16.4 µM [activator, partial curve, poor fit]
9 | COc1ccccc1CNS(=O)(=O)c1cc(-c2cc(C)no2)ccc1C | inconclusive: 29.1 µM [activator, single point]
10 | CC(Oc1cc(Cl)ccc1Cl)C(=O)N/N=C\c1ccnn1C (stereo unspecified) | inactive
11 | CCCCC(c1nnnn1C(C)C)N1CCN(C(=O)c2ccco2)CC1 (stereo unspecified) | inactive
12 | CCC(C)N1CCC2(CC1)N=c1c(c3c4c5c(C)c(O)c3c(O)c1=NC(=O)C(C)=CC=C[C@H](C)[C@H](O)[C@@H](C)[C@@H](O)[C@@H](C)[C@H](OC(C)=O)[C@H](C)[C@@H](OC)C=CO[C@@](C)(O5)C4=O)N2 (stereo partly specified) | inconclusive: 20.6 µM [falling, partial curve]
13 | CCCCc1nn2c(=O)cc(COC(=O)c3ccc(NC(=O)c4cccc(OC)c4)cc3)nc2s1 | inactive
14 | COC(=O)c1oc2ccc(Br)cc2c1NC(=O)CCCN1C(=O)c2ccccc2C1=O | inconclusive: 6.51 µM [activator, single point]
15 | CCOC(=O)C1=C(N)n2c(s/c(=C\c3ccco3)c2=O)=C(C(=O)OCC)C1c1ccco1 (stereo unspecified) | inconclusive: 7.31 µM [falling, partial curve]
16 | CN(c1ccccc1)S(=O)(=O)c1cccc(NC(=O)COc2ccccc2)c1 | inactive
17 | CCN(CC)CCn1c2c(c(SCC(=O)Nc3ccc(C(C)C)cc3)nc1=O)CCC2 | inconclusive: 32.6 µM [falling, partial curve, poor fit]
18 | CN1C2C=C(N(CCc3c[nH]c4ccccc34)C(=O)c3ccc(Cl)cc3)CC1CC2 (stereo unspecified) | inconclusive: 32.6 µM [falling, partial curve, poor fit]
19 | COc1cc2cc(CCOC(=O)CCCC(=O)O)oc(=O)c2cc1OC | inactive
20 | C/C(=C\C(=O)c1ccc(F)cc1)NCc1ccc2c(c1)OCO2 | inactive
21 | COc1cc2cnc(-c3ccccc3)c(-c3ccc(C(F)(F)F)cc3)c2cc1OC | inconclusive: 20.6 µM [falling, single point]

Random excerpt: 3 entries already listed.
Row | Structure (SMILES) | Potency
1 | Cc1c(Cl)cccc1NC(=O)CCC(=O)N/N=C/c1ccc[nH]1 | inconclusive: 29.1 µM [falling, single point]
18 | CN1C2C=C(N(CCc3c[nH]c4ccccc34)C(=O)c3ccc(Cl)cc3)CC1CC2 (stereo unspecified) | inconclusive: 32.6 µM [falling, partial curve, poor fit]
16 | CN(c1ccccc1)S(=O)(=O)c1cccc(NC(=O)COc2ccccc2)c1 | inactive

Next results.

Row | Structure (SMILES) | Potency
22 | O=C(/C=C/c1ccc(OC(F)F)cc1)OCC(=O)N1CCN(C(=O)c2ccco2)CC1 | inactive
23 | Nc1nonc1-n1nnc(C(=O)N/N=C\c2ccncc2)c1CN1CCCCC1 | inconclusive: 1.84 µM [activator, partial curve, poor fit]
24 | Cc1c(C(=O)OCC(=O)N2CC(=O)Nc3ccccc32)oc2ccc(Br)cc12 | inconclusive: 25.9 µM [falling, single point]
25 | Cc1ccc(C2Nc3ccccc3C(=O)N2Cc2ccco2)cc1 (stereo unspecified) | inactive
26 | Cn1c(-c2ccccc2)c(C(=O)CCl)c2ccccc21 | inactive
27 | Cc1cc(NC(=O)c2ccc([N+](=O)[O-])o2)ccc1NC(=O)c1ccco1 | inconclusive: 14.6 µM [falling, partial curve, poor fit]
28 | COC(=O)c1cccnc1-n1c(=O)c2cccnc2n(CC(=O)Nc2cccc(C(F)(F)F)c2)c1=O | inactive
29 | COc1ccc(C2C3=C(CC(C)(C)CC3=O)Oc3ncn(Cc4ccccc4)c(=N)c32)cc1 (stereo unspecified) | inactive
30 | Cc1ccc(-c2csc(NC(=O)COC(=O)c3cccc(S(=O)(=O)N4CCOCC4)c3)n2)cc1 | inactive
31 | Cc1ccc(C(=O)c2c3ccccc3[n+]([O-])n2CCO)cc1 | inconclusive: 25.9 µM [falling, partial curve, poor fit]
32 | Cc1ccc(NC(=O)C(C)c2ccc(-c3ccccc3)c(F)c2)cc1 (stereo unspecified) | inconclusive: 23.1 µM [falling, partial curve]
33 | CCCCNC(=O)C(C)N(CCN(C)C)C(=O)CCCCCN1C(=O)NC(c2ccc(Cl)cc2)C(C(=O)OCc2ccccc2)=C1C (stereo unspecified) | inconclusive: 23.1 µM [falling, single point]
34 | CC(C)c1ccc(NC(=O)CSC2=Nc3ccccc3C3=NC(CC(=O)NCCc4ccccc4)C(=O)N23)cc1 (stereo unspecified) | inconclusive: 16.4 µM [falling, partial curve, poor fit]
35 | O=C1CCC(C(=O)OCC(=O)Nc2ccc(Cl)cc2C(F)(F)F)=NN1 | inconclusive: 6.51 µM [activator, single point]
36 | Cc1c(NC(=O)c2nn3c(C(F)(F)F)cc(-c4ccccc4)nc3c2Br)c(=O)n(-c2ccccc2)n1C | inconclusive: 23.1 µM [falling, partial curve, poor fit]
37 | COc1ccc(/C=N\NC(=O)COc2ccc(C(C)(C)C)cc2)cc1Cn1nc(C)cc1C | active: 14.6 µM
38 | CC(=O)NCCNc1nc2c(-c3cccc(C(F)(F)F)c3)nnn2c2ccccc12 | inconclusive: 25.9 µM [activator, single point]
39 | CC(C)c1ccc(Cc2cnc(NC(=O)c3ccc4c(c3)CC(c3ccccc3)OC4=O)s2)cc1 (stereo unspecified) | inactive
40 | O=c1cc(N2CCN(c3ccc(F)cc3)CC2)[nH]c(=O)n1-c1cccc(Br)c1 | inconclusive: 14.6 µM [falling, partial curve, poor fit]
41 | CCCCNC(=S)N(C)/N=C/c1ccc2c(c1)OCO2 | inconclusive: 25.9 µM [activator, partial curve, poor fit]
